# In article doi:10.1101/2023.03.14.532478:
# Protein sequences, listed by entry. Tags and fused reporters are not part of them.
# UniProt Q9BYG3: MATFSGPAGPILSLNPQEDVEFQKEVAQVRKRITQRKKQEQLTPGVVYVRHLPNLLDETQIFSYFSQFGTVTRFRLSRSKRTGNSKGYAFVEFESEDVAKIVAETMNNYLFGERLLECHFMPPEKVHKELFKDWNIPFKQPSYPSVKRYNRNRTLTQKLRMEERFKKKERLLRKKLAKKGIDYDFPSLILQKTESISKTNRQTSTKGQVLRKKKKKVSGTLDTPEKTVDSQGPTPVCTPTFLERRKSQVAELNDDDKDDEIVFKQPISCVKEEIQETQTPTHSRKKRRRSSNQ
# UniProt Q14137: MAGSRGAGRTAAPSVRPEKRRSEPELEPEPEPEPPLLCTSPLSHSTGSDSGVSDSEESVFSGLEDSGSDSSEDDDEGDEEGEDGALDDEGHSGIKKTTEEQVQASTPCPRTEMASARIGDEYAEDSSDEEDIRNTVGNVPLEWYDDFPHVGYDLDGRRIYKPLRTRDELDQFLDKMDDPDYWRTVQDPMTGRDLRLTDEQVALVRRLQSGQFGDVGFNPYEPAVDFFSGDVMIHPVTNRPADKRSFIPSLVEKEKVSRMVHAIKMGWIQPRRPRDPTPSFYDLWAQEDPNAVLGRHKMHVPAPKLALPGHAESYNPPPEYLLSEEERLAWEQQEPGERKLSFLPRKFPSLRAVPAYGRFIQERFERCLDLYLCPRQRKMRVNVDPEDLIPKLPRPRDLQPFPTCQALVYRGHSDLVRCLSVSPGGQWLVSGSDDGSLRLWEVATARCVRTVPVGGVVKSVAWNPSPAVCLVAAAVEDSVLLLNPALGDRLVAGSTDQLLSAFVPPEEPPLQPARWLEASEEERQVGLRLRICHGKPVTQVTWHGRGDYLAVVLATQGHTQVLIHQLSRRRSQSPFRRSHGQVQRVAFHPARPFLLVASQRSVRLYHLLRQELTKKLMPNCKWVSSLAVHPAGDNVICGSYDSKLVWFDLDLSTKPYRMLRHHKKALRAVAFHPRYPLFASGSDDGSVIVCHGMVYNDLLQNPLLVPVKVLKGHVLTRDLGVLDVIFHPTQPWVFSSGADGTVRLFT
# UniProt Q8TDD1: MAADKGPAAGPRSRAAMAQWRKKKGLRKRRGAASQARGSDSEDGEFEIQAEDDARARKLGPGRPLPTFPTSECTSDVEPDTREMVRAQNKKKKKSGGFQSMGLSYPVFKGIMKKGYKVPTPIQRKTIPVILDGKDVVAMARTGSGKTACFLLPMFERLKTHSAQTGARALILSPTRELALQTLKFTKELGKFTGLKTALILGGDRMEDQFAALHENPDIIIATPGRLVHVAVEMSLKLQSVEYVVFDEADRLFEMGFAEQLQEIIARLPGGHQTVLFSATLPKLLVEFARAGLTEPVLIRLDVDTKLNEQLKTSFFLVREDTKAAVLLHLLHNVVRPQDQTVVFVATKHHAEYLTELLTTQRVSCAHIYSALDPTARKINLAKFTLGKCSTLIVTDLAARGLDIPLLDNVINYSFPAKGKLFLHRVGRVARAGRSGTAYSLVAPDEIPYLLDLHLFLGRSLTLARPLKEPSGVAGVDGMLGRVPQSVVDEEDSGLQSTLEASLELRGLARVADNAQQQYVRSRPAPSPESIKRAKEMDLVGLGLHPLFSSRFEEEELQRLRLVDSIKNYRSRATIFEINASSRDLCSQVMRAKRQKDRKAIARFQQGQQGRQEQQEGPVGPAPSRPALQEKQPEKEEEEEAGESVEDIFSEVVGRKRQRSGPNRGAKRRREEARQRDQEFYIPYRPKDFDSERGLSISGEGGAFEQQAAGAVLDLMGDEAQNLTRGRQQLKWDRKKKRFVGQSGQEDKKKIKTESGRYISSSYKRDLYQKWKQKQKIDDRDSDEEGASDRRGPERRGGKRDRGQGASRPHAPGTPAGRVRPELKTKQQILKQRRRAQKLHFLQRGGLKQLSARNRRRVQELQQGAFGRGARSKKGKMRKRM
# Where two headings read alike, the source gives them in different places. No constants are given. Whether binding was seen depends on the method and setting. Some entries that bind do so weakly or less than the wild type.
# Legend:
# [1] = molecular target: MK67I (human (endogenous in HEK 293-F)) (UniProt Q9BYG3)
# [2] = molecular target: BOP1 (human (endogenous in HEK 293-F)) (UniProt Q14137); assay: cryo-EM structure
# [3] = molecular target: DDX54 (human (endogenous in HEK 293-F)) (UniProt Q8TDD1); assay: cryo-EM structure
# [4] = molecular target: MK67I (human (endogenous in HEK 293-F)) (UniProt Q9BYG3); remark: listed apart in the source
molecule,measurement,setting,value
MAK16 (from UniProt Q9BXY0 1-300),binding,[1],binds
"BRX1-EBP2 complex (complex, UniProt Q8TDN6;Q99848) chain 1: MAATKRKRRGGFAVQAKKPKRNEIDAEPPAKRHATAEEVEEEERDRIPGPVCKGKWKNKERILIFSSRGINFRTRHLMQDLRMLMPHSKADTKMDRKDKLFVINEVCEMKNCNKCIYFEAKKKQDLYMWLSNSPHGPSAKFLVQNIHTLAELKMTGNCLKGSRPLLSFDPAFDELPHYALLKELLIQIFSTPRYHPKSQPFVDHVFTFTILDNRIWFRNFQIIEEDAALVEIGPRFVLNLIKIFQGSFGGPTLYENPHYQSPNMHRRVIRSITAAKYREKQQVKDVQKLRKKEPKTLLPHDPTADVFVTPAEEKPIEIQWVKPEPKVDLKARKKRIYKRQRKMKQRMDSGKTK chain 2: MDTPPLSDSESESDESLVTDRELQDAFSRGLLKPGLNVVLEGPKKAVNDVNGLKQCLAEFKRDLEWVERLDVTLGPVPEIGGSEAPAPQNKDQKAVDPEDDFQREMSFYRQAQAAVLAVLPRLHQLKVPTKRPTDYFAEMAKSDLQMQKIRQKLQTKQAAMERSEKAKQLRALRKYGKKVQTEVLQKRQQEKAHMMNAIKKYQKGFSDKLDFLEGDQKPLAQRKKAGAKGQQMRKGPSAKRRYKNQKFGFGGKKKGSKWNTRESYDDVSSFRAKTAHGRGLKRPGKKGSNKRPGKRTREKMKNRTH",binding,[2],binds
"NOP2/NIP7 complex (complex, UniProt P46087;Q9Y221) chain 1: MGRKLDPTKEKRGPGRKARKQKGAETELVRFLPAVSDENSKRLSSRARKRAAKRRLGSVEAPKTNKSPEAKPLPGKLPKGISAGAVQTAGKKGPQSLFNAPRGKKRPAPGSDEEEEEEDSEEDGMVNHGDLWGSEDDADTVDDYGADSNSEDEEEGEALLPIERAARKQKAREAAAGIQWSEEETEDEEEEKEVTPESGPPKVEEADGGLQINVDEEPFVLPPAGEMEQDAQAPDLQRVHKRIQDIVGILRDFGAQREEGRSRSEYLNRLKKDLAIYYSYGDFLLGKLMDLFPLSELVEFLEANEVPRPVTLRTNTLKTRRRDLAQALINRGVNLDPLGKWSKTGLVVYDSSVPIGATPEYLAGHYMLQGASSMLPVMALAPQEHERILDMCCAPGGKTSYMAQLMKNTGVILANDANAERLKSVVGNLHRLGVTNTIISHYDGRQFPKVVGGFDRVLLDAPCSGTGVISKDPAVKTNKDEKDILRCAHLQKELLLSAIDSVNATSKTGGYLVYCTCSITVEENEWVVDYALKKRNVRLVPTGLDFGQEGFTRFRERRFHPSLRSTRRFYPHTHNMDGFFIAKFKKFSNSIPQSQTGNSETATPTNVDLPQVIPKSENSSQPAKKAKGAAKTKQQLQKQQHPKKASFQKLNGISKGADSELSTVPSVTKTQASSSFQDSSQPAGKAEGIREPKVTGKLKQRSPKLQSSKKVAFLRQNAPPKGTDTQTPAVLSPSKTQATLKPKDHHQPLGRAKGVEKQQLPEQPFEKAAFQKQNDTPKGPQPPTVSPIRSSRPPPAKRKKSQSRGNSQLLLS chain 2: MRPLTEEETRVMFEKIAKYIGENLQLLVDRPDGTYCFRLHNDRVYYVSEKIMKLAANISGDKLVSLGTCFGKFTKTHKFRLHVTALDYLAPYAKYKVWIKPGAEQSFLYGNHVLKSGLGRITENTSQYQGVVVYSMADIPLGFGVAAKSTQDCRKVDPMAIVVFHQADIGEYVRHEETLT",binding,[3],binds
"RRS1 (protein, UniProt Q15050 1-365) MEGQSVEELLAKAEQDEAEKLQRITVHKELELQFDLGNLLASDRNPPTGLRCAGPTPEAELQALARDNTQLLINQLWQLPTERVEEAIVARLPEPTTRLPREKPLPRPRPLTRWQQFARLKGIRPKKKTNLVWDEVSGQWRRRWGYQRARDDTKEWLIEVPGNADPLEDQFAKRIQAKKERVAKNELNRLRNLARAHKMQLPSAAGLHPTGHQSKEELGRAMQVAKVSTASVGRFQERLPKEKVPRGSGKKRKFQPLFGDFAAEKKNQLELLRVMNSKKPQLDVTRATNKQMREEDQEEAAKRRKMSQKGKRKGGRQGPGGKRKGGPPSQGGKRKGGLGGKMNSGPPGLGGKRKGGQRPGGKRRK",binding,[2],binds
"WDR74 (protein, UniProt Q6RFH5 1-385) MAAAAARWNHVWVGTETGILKGVNLQRKQAANFTAGGQPRREEAVSALCWGTGGETQMLVGCADRTVKHFSTEDGIFQGQRHCPGGEGMFRGLAQADGTLITCVDSGILRVWHDKDKDTSSDPLLELRVGPGVCRMRQDPAHPHVVATGGKENALKIWDLQGSEEPVFRAKNVRNDWLDLRVPIWDQDIQFLPGSQKLVTCTGYHQVRVYDPASPQRRPVLETTYGEYPLTAMTLTPGGNSVIVGNTHGQLAEIDLRQGRLLGCLKGLAGSVRGLQCHPSKPLLASCGLDRVLRIHRIQNPRGLEHKVYLKSQLNCLLLSGRDNWEDEPQEPQEPNKVPLEDTETDELWASLEAAAKRKLSGLEQPQGALQTRRRKKKRPGSTSP",binding,[1],binds
"RPF1 (protein, UniProt Q9H9Y2 1-349) MAKAGDKSSSSGKKSLKRKAAAEELQEAAGAGDGATENGVQPPKAAAFPPGFSISEIKNKQRRHLMFTRWKQQQRKEKLAAKKKLKKEREALGDKAPPKPVPKTIDNQRVYDETTVDPNDEEVAYDEATDEFASYFNKQTSPKILITTSDRPHGRTVRLCEQLSTVIPNSHVYYRRGLALKKIIPQCIARDFTDLIVINEDRKTPNGLILSHLPNGPTAHFKMSSVRLRKEIKRRGKDPTEHIPEIILNNFTTRLGHSIGRMFASLFPHNPQFIGRQVATFHNQRDYIFFRFHRYIFRSEKKVGIQELGPRFTLKLRSLQKGTFDSKYGEYEWVHKPREMDTSRRKFHL",binding,[1],binds
"RRP1 (protein, UniProt P56182 1-461) MVSRVQLPPEIQLAQRLAGNEQVTRDRAVRKLRKYIVARTQRAAGGFTHDELLKVWKGLFYCMWMQDKPLLQEELGRTISQLVHAFQTTEAQHLFLQAFWQTMNREWTGIDRLRLDKFYMLMRMVLNESLKVLKMQGWEERQIEELLELLMTEILHPSSQAPNGVKSHFIEIFLEELTKVGAEELTADQNLKFIDPFCRIAARTKDSLVLNNITRGIFETIVEQAPLAIEDLLNELDTQDEEVASDSDESSEGGERGDALSQKRSEKPPAGSICRAEPEAGEEQAGDDRDSGGPVLQFDYEAVANRLFEMASRQSTPSQNRKRLYKVIRKLQDLAGGIFPEDEIPEKACRRLLEGRRQKKTKKQKRLLRLQQERGKGEKEPPSPGMERKRSRRRGVGADPEARAEAGEQPGTAERALLRDQPRGRGQRGARQRRRTPRPLTSARAKAANVQEPEKKKKRRE",binding,[1],binds
"GNL3 (protein, UniProt Q9BVP2 1-549) MKRPKLKKASKRMTCHKRYKIQKKVREHHRKLRKEAKKRGHKKPRKDPGVPNSAPFKEALLREAELRKQRLEELKQQQKLDRQKELEKKRKLETNPDIKPSNVEPMEKEFGLCKTENKAKSGKQNSKKLYCQELKKVIEASDVVLEVLDARDPLGCRCPQVEEAIVQSGQKKLVLILNKSDLVPKENLESWLNYLKKELPTVVFRASTKPKDKGKITKRVKAKKNAAPFRSEVCFGKEGLWKLLGGFQETCSKAIRVGVIGFPNVGKSSIINSLKQEQMCNVGVSMGLTRSMQVVPLDKQITIIDSPSFIVSPLNSSSALALRSPASIEVVKPMEAASAILSQADARQVVLKYTVPGYRNSLEFFTVLAQRRGMHQKGGIPNVEGAAKLLWSEWTGASLAYYCHPPTSWTPPPYFNESIVVDMKSGFNLEELEKNNAQSIRAIKGPHLANSILFQSSGLTNGIIEEKDIHEELPKRKERKQEEREDDKDSDQETVDEEVDENSSGMFAAEETGEALSEETTAGEQSTRSFILDKIIEEDDAYDFSTDYV",binding,[1],binds
"SURF6 (protein, UniProt O75683 1-361) MASLLAKDAYLQSLAKKICSHSAPEQQARTRAGKTQGSETAGPPKKKRKKTQKKFRKREEKAAEHKAKSLGEKSPAASGARRPEAAKEEAAWASSSAGNPADGLATEPESVFALDVLRQRLHEKIQEARGQGSAKELSPAALEKRRRRKQERDRKKRKRKELRAKEKARKAEEATEAQEVVEATPEGACTEPREPPGLIFNKVEVSEDEPASKAQRRKEKRQRVKGNLTPLTGRNYRQLLERLQARQSRLDELRGQDEGKAQELEAKMKWTNLLYKAEGVKIRDDERLLQEALKRKEKRRAQRQRRWEKRTAGVVEKMQQRQDRRRQNLRRKKAARAERRLLRARKKGRILPQDLERAGLV",binding,[4],binds
"SSF1 (protein, UniProt Q9NQ55 1-473) MGQSGRSRHQKRARAQAQLRNLEAYAANPHSFVFTRGCTGRNIRQLSLDVRRVMEPLTASRLQVRKKNSLKDCVAVAGPLGVTHFLILSKTETNVYFKLMRLPGGPTLTFQVKKYSLVRDVVSSLRRHRMHEQQFAHPPLLVLNSFGPHGMHVKLMATMFQNLFPSINVHKVNLNTIKRCLLIDYNPDSQELDFRHYSIKVVPVGASRGMKKLLQEKFPNMSRLQDISELLATGAGLSESEAEPDGDHNITELPQAVAGRGNMRAQQSAVRLTEIGPRMTLQLIKVQEGVGEGKVMFHSFVSKTEEELQAILEAKEKKLRLKAQRQAQQAQNVQRKQEQREAHRKKSLEGMKKARVGGSDEEASGIPSRTASLELGEDDDEQEDDDIEYFCQAVGEAPSEDLFPEAKQKRLAKSPGRKRKRWEMDRGRGRLCDQKFPKTKDKSQGAQARRGPRGASRDGGRGRGRGRPGKRVA",binding,[4],binds
"RRP15 (protein, UniProt Q9Y3B9 1-282) MAAAAPDSRVSEEENLKKTPKKKMKMVTGAVASVLEDEATDTSDSEGSCGSEKDHFYSDDDAIEADSEGDAEPCDKENENDGESSVGTNMGWADAMAKVLNKKTPESKPTILVKNKKLEKEKEKLKQERLEKIKQRDKRLEWEMMCRVKPDVVQDKETERNLQRIATRGVVQLFNAVQKHQKNVDEKVKEAGSSMRKRAKLISTVSKKDFISVLRGMDGSTNETASSRKKPKAKQTEVKSEEGPGWTILRDDFMMGASMKDWDKESDGPDDSRPESASDSDT",binding,[4],binds
